Results are given in words; binding and its absence hold for the method and conditions named. Some entries that bind do so weakly or less than the wild type.
Tests used:
Assay in all cases: far-Western, overlay or dot blot; in vitro translated NR5A1 proteins fractionated on 10% SDS-PAGE, transferred to nitrocellulose, treated with 6 to 0.19 M guanidine HCl in buffer A (20 mM HEPES pH 7.5, 50 mM NaCl, 1 mM EDTA, 1 mM DTT, 10% glycerol), blocked with 1% BSA; incubated overnight at 4°C with in vitro translated GATA4 (2 µg/ml) in buffer A with 1% BSA and 0.1% Tween-20; bound GATA4 detected with anti-GATA4 antibody
[1] = target: NR5A1 p.Arg313Cys (human) (UniProt Q13285)
NR5A1 p.Arg39Pro (human) = NR5A1 p.Arg39Pro (human) (UniProt Q13285)
[2] = target: wild-type NR5A1 (steroidogenic factor-1) (human) (UniProt Q13285)

Sequences of proteins named here, by UniProt entry; tags and fusion partners are left off. A change or cut given only in a name is not applied to a line headed by its entry. A line that says so, or that is headed by a name, gives the form on record, which may keep a tag or linker.
UniProt Q13285: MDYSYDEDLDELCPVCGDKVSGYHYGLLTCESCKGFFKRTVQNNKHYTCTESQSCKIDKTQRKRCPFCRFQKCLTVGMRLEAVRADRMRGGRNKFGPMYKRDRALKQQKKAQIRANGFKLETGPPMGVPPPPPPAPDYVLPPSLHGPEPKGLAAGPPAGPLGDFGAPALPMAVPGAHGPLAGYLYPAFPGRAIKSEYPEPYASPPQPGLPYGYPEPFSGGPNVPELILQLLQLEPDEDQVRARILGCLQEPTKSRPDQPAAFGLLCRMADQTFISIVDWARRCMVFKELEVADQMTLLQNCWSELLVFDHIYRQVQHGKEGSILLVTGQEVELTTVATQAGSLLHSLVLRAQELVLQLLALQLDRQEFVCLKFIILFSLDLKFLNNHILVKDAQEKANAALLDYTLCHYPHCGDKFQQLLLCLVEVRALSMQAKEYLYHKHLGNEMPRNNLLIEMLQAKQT
NR5A1 p.Arg313Cys (Q13285, form named): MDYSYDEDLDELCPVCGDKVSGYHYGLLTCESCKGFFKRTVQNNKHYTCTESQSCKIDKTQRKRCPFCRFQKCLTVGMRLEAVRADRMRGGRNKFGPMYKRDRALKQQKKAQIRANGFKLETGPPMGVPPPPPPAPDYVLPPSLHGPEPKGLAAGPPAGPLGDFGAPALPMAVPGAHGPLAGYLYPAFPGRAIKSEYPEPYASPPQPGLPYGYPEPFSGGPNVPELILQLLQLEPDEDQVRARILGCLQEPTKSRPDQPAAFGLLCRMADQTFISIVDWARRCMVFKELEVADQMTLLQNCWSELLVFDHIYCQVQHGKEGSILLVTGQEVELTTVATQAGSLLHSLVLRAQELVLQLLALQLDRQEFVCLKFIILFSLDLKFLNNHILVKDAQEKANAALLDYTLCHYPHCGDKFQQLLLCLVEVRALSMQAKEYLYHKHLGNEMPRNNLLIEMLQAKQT
NR5A1 p.Arg39Pro (Q13285, form named): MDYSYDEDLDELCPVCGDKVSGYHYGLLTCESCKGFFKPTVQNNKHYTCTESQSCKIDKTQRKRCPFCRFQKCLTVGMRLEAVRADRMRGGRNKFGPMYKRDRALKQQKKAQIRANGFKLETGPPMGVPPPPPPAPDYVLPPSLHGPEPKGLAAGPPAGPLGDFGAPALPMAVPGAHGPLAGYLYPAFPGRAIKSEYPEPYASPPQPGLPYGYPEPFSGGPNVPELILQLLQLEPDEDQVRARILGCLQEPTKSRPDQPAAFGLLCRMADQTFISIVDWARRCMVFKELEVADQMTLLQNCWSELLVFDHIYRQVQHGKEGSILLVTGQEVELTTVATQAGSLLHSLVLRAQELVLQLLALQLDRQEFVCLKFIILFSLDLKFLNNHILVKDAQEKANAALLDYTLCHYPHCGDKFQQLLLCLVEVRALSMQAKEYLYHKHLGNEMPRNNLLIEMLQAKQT
UniProt Q08369: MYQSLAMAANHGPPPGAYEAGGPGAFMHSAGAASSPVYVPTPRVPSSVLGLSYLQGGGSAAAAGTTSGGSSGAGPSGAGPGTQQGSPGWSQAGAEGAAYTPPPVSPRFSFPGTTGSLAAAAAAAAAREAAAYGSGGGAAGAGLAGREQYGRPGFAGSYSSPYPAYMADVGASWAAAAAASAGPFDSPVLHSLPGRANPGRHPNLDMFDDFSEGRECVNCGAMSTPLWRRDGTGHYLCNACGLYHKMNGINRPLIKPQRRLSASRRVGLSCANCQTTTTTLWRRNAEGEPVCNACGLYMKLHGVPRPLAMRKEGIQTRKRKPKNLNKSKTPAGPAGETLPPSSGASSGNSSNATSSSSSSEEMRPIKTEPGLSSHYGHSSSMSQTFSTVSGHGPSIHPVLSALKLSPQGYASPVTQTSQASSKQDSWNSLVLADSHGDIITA

binding [1]: binds | binding (NR5A1 p.Arg39Pro (human)): binds | binding [2]: binds
Substance: GATA4 (from UniProt Q08369 1-441)

From publication PMC3197579
